Patent US7465708B2, “Branched cationic copolymers and methods for antimicrobial use” (priority 2002, dated 2008)
Part of at least one peptide drawing is inferred or uncertain, most often the ends. No end group written: not given here.

Tested on: gram negative bacteria E. coli transformed with a kanamycin-resistant plasmid
Assay: In vitro bacteria inhibition (MIC, turbidity O.D. 600 nm in LB broth)
Format: cell-based
Protocol: Bacteria; A gram negative bacteria E. coli transformed with a kanamycin-resistant plasmid was used in these experiments and grown in LB media (Biofluids, Rockville, Md.).
For in vitro studies, several polymers were tested for their ability to inhibit gram negative bacteria. […] The histidine and lysine ratio and their sequence order have an important role in the-polymers' effects. […] Since it is likely that H^3KN4b has the greatest ability to chelate key transitional elements, chelation of key elements in LB media, separate from the polymer's role of binding to the bacteria membrane, is unlikely to have a major role in the inhibition of bacteria. • 3) The sequence order of lysine and histidine in the branched polymer has a major role in the inhibition of bacteria. Altering these sequences affects the antibacterial activity of […]. Sufficient cationic amino acids are critical for binding whereas the exact function of histidine is unclear. Data supports that cationic amino acids need to be evenly distributed in branches, particularly at N-terminal ends. Too many cationic amino acids in the polymer, however, reduce antibacterial activity. • 4) Histidine may have a role in the interruption of iron transport systems and/or it may enhance the hydrophobic interactions of the polymer with the bacteria membrane.

Sequence | antimicrobial activity (in words)
KHKHKHKHKGKHKHKHKHK [linear HK, [K-H-K-H-K-H-K-H-K-G-K-H-K-H-K-H-K-H-K]] | only moderate reduction on bacteria growth
RHRHRHRHRGRHRHRHRHR [linear RH, [R-H-R-H-R-H-R-H-R-G-R-H-R-H-R-H-R-H-R]] | only moderate reduction on bacteria growth
